Data published in US20240115745A1, “COMPOUNDS COMPRISING A FIBROBLAST ACTIVATION PROTEIN LIGAND AND USE THEREOF” (3B PHARMACEUTICALS GMBH, priority 2021, published 2024).
At least one compound was matched to its structure with a doubt left. Where a SMILES comes first, the peptide text is derived from it.

Sequences of proteins named here, by UniProt entry; tags and fusion partners are left off. Residues count along the entry.
UniProt Q12884, 26-760 limits assumed: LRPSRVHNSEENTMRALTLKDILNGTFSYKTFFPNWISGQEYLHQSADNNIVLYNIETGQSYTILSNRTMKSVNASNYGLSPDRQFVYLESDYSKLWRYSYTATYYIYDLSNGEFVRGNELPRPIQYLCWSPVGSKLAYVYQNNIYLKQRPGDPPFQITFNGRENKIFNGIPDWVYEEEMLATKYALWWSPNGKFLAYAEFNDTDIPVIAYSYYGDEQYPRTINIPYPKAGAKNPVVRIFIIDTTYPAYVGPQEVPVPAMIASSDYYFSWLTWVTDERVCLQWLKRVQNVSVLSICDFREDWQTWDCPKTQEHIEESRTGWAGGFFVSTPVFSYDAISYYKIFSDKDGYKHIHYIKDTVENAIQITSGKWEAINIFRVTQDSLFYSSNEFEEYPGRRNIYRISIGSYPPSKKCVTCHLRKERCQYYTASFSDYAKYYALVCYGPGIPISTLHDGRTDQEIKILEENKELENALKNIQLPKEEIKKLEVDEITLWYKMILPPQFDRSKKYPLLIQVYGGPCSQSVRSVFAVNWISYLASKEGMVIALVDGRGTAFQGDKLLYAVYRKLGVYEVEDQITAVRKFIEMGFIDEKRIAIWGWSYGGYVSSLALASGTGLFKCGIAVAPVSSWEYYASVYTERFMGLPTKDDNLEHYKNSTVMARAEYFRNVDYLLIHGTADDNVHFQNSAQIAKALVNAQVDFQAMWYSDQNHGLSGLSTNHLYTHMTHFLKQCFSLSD
UniProt Q12884, whole entry: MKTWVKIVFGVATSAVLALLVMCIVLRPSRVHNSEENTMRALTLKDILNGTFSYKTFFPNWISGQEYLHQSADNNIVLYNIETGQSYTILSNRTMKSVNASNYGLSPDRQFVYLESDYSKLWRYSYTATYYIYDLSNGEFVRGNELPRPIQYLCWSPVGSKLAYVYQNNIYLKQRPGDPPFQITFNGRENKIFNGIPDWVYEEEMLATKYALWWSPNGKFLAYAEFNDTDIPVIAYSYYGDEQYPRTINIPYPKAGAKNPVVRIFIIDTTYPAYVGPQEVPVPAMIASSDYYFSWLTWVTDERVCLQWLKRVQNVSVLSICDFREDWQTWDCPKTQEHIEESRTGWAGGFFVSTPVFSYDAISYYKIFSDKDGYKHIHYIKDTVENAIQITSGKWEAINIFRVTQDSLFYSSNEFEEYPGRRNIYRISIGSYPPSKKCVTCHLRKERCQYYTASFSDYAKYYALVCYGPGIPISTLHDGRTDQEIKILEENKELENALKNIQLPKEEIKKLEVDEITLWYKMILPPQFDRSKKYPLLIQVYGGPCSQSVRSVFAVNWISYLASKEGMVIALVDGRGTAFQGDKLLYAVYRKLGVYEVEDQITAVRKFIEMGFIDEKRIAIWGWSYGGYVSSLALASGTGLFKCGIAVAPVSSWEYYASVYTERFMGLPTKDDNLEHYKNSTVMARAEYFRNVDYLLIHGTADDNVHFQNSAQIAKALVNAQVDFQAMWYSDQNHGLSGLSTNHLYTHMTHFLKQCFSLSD

Columns and labels:
Recombinant human FAP = biological target: T1, Recombinant human FAP (Homo sapiens, UniProt Q12884); assay: FRET-based FAP protease activity assay; format: biochemical; conditions: FRET-peptide substrate, 37° C.
T1 construct: purchased R&D systems 3715-SE

[1] = biological target: T2, FAP-expressing human WI-38 fibroblasts (Homo sapiens, UniProt Q12884); assay: Competitive FACS binding assay; conditions: competition with 3 nM Cy5-labeled compound, 4° C., 1 hour;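 note: flow cytometry read-out of median Cy5 fluorescence on the cells, plotted versus test compound concentration, with IC50 derived by four-parameter logistic curve fitting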
T2 construct: FAP-expressing human WI-38 fibroblasts (ECACC) were cultured in EMEM; host or cells: WI-38 human fibroblasts

## CCCCCC(=O)N[C@H]1CSC2=C(SC[C@@H](C(=O)N[C@@H](CC(=O)O)C(N)=O)NC(=O)[C@H](Cc3ccccc3)NC(=O)[C@H](CCC(N)=O)NC(=O)[C@H]([C@@H](C)O)NC(=O)[C@@H]3CCCN3C(=O)[C@@H]3CCCN3C1=O)C(=O)N(CCCOCCOCCOCCCNC(=O)CC[C@H](C(=O)O)N1CCN(CC(=O)O)CCN(CC(=O)O)CC1)C2=O [Compound 2025, Hex-[Cys(mli(NODAGA-Ttd))-Pro-Pro-Thr-Gln-Phe-Cys]-Asp-NH2] (HELM PEPTIDE1{[CCCCCC(=O)[*:2]].C.P.P.T.Q.F.C.D.[am]}|CHEM1{[O=C(O)CN1CCN(CC(=O)O)CCN([C@H](CCC(=O)NCCCOCCOCCOCCCN2C(=O)C([*:1])=C([*:2])C2=O)C(=O)O)CC1]}$PEPTIDE1,CHEM1,2:R3-1:R1|PEPTIDE1,CHEM1,8:R3-1:R2$$$V2.0)
Recombinant human FAP
  pIC50 Category (Activity): A (pIC50 category A stands for pIC50 values >7.0)
[1]
  pIC50 Category (FACS): A (pIC50 category A stands for pIC50 values >7.0)
